We go through 30 targets from the supplement of paper PMC10849652.

Sequences of proteins named here, by UniProt entry; tags and fusion partners are left off. A change or cut given only in a name is not applied to a line headed by its entry.
UniProt Q96I15: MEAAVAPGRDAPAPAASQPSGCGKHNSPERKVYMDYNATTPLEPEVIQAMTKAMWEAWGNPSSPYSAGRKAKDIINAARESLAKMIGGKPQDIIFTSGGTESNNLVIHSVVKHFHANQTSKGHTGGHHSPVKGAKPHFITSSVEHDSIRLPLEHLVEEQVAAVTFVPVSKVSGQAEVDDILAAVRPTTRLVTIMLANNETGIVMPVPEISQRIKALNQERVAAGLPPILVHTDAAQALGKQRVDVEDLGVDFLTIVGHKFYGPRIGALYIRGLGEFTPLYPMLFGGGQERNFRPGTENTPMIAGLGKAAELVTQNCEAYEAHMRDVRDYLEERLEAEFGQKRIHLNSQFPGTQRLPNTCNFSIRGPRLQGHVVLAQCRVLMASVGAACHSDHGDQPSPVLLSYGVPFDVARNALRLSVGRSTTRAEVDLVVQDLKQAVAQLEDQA
UniProt P25815: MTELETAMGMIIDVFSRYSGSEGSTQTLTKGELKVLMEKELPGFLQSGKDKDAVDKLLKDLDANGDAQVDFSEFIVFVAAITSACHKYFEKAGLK
UniProt P22307: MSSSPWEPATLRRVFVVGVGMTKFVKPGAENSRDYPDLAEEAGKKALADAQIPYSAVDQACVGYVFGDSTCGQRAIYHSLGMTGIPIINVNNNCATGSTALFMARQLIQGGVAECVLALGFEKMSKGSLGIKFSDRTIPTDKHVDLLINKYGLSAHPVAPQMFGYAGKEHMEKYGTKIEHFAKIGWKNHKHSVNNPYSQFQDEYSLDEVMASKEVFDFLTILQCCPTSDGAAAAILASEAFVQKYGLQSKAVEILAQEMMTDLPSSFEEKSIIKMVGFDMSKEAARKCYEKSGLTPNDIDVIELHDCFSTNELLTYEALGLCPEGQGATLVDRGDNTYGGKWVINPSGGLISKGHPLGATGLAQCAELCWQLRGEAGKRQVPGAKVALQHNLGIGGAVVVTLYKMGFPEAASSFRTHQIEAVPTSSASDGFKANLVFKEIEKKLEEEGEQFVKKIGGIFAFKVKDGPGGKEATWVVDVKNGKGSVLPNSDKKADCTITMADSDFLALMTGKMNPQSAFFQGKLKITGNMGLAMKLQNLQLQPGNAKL
UniProt Q969E2: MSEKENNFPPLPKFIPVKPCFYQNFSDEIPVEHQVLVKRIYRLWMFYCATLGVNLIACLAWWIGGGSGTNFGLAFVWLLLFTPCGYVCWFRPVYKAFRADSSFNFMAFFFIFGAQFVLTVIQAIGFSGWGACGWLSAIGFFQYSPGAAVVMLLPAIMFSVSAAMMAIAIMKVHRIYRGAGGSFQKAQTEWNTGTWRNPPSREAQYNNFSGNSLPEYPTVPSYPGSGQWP
UniProt Q14108: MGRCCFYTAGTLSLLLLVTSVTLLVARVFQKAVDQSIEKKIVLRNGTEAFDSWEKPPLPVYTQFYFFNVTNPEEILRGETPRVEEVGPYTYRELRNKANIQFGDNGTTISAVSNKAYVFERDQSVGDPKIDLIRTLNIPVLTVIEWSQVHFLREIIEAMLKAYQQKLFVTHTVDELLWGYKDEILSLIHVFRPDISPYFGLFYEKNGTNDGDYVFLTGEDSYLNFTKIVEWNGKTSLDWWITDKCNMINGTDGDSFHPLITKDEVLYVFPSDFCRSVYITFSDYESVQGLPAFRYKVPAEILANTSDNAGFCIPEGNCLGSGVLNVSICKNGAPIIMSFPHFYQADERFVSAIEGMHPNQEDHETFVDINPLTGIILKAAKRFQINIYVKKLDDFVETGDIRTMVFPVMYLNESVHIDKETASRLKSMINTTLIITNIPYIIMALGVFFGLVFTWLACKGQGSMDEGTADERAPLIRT
UniProt Q12770: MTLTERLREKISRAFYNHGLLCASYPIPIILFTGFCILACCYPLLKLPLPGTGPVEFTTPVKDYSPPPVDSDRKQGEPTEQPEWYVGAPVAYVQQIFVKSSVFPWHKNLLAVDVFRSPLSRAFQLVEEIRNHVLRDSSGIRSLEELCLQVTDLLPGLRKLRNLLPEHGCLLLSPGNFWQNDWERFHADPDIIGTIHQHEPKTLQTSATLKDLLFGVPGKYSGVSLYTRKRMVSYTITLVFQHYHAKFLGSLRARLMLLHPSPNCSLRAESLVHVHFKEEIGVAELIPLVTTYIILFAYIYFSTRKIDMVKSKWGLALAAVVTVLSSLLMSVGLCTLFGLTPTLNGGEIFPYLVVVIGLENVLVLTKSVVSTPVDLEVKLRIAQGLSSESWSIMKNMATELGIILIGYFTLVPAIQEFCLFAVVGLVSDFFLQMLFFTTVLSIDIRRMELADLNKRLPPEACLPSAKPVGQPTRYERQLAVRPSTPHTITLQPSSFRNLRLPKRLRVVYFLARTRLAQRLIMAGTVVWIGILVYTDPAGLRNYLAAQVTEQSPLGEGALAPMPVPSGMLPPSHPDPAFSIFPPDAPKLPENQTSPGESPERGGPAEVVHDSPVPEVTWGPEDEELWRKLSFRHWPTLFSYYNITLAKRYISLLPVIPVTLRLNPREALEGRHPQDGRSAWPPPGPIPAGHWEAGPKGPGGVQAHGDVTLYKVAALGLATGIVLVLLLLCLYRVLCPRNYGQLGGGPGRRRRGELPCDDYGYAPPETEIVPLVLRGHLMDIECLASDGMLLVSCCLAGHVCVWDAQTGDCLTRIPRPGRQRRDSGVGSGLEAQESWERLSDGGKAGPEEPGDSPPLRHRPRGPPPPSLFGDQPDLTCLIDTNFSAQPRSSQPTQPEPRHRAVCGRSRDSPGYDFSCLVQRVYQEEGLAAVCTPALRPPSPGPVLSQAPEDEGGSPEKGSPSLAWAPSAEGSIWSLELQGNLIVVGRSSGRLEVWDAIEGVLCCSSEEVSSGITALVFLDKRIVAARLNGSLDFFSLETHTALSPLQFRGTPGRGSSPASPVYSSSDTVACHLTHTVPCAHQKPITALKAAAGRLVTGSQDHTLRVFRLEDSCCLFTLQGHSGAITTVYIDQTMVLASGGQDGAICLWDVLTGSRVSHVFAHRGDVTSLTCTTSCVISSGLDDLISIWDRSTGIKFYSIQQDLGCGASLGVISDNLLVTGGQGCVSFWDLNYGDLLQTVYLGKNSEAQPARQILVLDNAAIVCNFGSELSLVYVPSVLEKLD
UniProt Q9Y3B9: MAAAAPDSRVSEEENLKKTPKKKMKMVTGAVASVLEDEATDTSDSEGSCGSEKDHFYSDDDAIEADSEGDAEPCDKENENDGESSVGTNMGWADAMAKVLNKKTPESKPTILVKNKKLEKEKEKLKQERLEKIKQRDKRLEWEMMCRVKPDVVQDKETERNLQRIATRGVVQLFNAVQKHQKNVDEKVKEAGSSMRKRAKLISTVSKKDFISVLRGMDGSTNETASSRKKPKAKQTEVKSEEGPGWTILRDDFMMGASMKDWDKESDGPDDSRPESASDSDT
UniProt O95248: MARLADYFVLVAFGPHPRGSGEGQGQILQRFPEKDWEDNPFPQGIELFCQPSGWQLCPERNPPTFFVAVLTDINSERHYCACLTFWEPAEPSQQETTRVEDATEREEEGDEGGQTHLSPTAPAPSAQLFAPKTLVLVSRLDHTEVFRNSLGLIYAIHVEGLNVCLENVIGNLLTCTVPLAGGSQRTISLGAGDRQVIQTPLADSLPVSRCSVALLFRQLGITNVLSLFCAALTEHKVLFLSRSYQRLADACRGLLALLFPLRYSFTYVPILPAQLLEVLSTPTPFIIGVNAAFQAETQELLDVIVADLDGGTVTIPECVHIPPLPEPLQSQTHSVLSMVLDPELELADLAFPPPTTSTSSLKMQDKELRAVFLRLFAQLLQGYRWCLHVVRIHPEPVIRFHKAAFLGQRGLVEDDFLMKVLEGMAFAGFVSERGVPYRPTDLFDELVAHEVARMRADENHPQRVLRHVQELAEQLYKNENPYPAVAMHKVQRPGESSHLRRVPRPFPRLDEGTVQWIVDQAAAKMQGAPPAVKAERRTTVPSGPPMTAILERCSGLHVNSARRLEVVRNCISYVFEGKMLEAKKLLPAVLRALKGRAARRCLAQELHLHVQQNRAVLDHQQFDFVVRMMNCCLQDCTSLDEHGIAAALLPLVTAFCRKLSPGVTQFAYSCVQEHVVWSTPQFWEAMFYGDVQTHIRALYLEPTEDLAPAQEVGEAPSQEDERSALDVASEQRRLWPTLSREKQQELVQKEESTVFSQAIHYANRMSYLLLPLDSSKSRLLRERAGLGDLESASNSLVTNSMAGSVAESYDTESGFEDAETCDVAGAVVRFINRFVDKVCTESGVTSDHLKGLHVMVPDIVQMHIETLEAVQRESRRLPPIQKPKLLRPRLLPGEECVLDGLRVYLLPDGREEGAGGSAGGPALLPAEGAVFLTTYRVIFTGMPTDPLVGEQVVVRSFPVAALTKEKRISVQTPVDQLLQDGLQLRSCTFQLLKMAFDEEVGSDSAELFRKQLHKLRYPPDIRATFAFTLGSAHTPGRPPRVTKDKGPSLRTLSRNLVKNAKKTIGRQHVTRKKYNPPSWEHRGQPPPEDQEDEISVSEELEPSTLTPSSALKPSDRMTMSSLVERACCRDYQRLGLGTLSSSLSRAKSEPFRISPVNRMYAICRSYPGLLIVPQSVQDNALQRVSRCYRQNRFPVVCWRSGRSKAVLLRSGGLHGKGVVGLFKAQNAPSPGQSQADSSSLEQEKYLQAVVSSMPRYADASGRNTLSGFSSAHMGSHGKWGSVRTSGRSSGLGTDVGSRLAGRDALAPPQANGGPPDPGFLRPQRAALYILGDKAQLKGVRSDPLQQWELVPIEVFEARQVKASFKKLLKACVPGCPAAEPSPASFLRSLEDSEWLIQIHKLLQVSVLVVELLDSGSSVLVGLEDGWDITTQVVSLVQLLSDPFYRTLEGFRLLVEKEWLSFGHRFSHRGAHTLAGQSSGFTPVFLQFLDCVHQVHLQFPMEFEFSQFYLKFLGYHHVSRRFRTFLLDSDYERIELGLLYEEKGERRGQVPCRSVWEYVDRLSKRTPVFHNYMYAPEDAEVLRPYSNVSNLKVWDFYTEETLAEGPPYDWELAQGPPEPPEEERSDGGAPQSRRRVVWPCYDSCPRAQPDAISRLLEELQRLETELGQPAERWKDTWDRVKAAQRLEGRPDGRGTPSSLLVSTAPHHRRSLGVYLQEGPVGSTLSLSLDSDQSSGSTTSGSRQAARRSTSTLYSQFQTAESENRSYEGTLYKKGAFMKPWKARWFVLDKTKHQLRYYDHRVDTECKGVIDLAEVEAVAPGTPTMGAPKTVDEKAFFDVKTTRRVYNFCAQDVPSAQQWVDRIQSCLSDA
UniProt Q9BW04: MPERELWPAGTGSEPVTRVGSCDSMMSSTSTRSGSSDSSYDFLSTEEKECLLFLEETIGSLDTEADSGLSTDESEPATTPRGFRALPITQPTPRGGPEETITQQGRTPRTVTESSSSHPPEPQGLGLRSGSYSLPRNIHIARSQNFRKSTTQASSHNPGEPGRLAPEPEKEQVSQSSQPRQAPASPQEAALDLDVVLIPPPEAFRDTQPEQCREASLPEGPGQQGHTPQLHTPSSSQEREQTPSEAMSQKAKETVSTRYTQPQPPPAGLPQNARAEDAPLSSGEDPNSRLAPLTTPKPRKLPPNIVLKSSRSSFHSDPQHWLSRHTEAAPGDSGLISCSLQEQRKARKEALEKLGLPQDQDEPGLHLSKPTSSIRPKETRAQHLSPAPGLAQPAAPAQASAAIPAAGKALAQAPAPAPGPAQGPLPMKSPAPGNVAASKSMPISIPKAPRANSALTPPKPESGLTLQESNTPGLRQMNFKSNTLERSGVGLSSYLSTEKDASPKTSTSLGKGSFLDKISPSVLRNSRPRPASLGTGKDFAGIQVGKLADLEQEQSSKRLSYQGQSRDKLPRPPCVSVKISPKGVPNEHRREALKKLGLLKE
UniProt Q9NR31: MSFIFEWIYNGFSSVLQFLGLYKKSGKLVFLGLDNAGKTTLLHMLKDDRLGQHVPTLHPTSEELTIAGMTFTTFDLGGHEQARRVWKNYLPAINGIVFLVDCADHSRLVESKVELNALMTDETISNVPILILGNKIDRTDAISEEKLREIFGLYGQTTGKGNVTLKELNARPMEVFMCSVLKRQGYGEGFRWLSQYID
UniProt P31949: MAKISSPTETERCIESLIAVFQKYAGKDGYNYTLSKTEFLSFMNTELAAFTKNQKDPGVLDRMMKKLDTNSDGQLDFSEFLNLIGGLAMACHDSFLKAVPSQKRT
UniProt Q9UHR5: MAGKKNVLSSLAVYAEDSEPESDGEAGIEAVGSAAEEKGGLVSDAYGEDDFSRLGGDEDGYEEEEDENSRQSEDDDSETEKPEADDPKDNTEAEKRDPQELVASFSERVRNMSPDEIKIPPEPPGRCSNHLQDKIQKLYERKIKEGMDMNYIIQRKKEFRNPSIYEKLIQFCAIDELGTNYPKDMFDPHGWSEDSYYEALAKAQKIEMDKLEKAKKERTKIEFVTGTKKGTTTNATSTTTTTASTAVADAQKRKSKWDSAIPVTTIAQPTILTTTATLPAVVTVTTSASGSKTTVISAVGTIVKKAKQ
UniProt Q9NRP4: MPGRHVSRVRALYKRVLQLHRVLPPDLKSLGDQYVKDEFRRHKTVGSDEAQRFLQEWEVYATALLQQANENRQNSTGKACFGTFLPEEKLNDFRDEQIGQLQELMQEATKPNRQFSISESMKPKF

Some of the results follow.

Compound in one test: Cc1ccc(-n2nc(C(C)(C)C)cc2NC(=O)Nc2ccc(OCCN3CCOCC3)c3ccccc23)cc1 [doramapimod]
Briefly: log2 fold change, soluble protein after heating vs DMSO (PISA); higher = thermal stabilisation; K562 cells, 10 uM, 30 min; active = over 0.2 and 3.5 SD of the protein, either way, in both replicates (recomputed). The method, boiled down: (§1)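 K562 cells (2×10^6 cells/mL) were treated with 10 μM compound for 30 min, and aliquots were heated for 3 min over 48°C-58°C. Pooled aliquots were extracted in PBS with 0.5% NP-40 at 4°C, and the supernatant after 21,000xg for 90 min was measured by TMTpro 16plex LC-MS/MS with channel sums equalised. Reported thermal stability, relative to control samples and from duplicates, is a log2 fold change.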
SCLY (UniProt Q96I15): the log2 fold change is inactive: 0.015.

For the target S100P (UniProt P25815), the log2 fold change was inactive: -0.092.

On to SCP2 (UniProt P22307), for which the log2 fold change was inactive: 0.04.

In the case of SCAMP4 (UniProt Q969E2), the log2 fold change was inactive: -0.035.

Consider SCARB2 (UniProt Q14108), for which the log2 fold change is inactive: 0.004.

Take SCAP (UniProt Q12770): the log2 fold change is inactive: 0.016.

For the target SEC24D isoform 2 (UniProt O94855), the log2 fold change is inactive: -0.042.

With RRP15 (UniProt Q9Y3B9), the log2 fold change was inactive: 0.013.

Regarding SBF1 isoform 4 (UniProt O95248), the log2 fold change was inactive: 0.026.

For the target SARG (UniProt Q9BW04), the log2 fold change was inactive: 0.004.

For the target SAR1A (UniProt Q9NR31), the log2 fold change was inactive: -0.12.

For S100A11 (UniProt P31949), the log2 fold change is inactive: -0.02.

Regarding SAP30BP (UniProt Q9UHR5), the log2 fold change is inactive: -0.022.

In the case of SAR1B (UniProt Q9Y6B6), the log2 fold change was inactive: -0.028.

Compound in a further test: Cc1ccc(C(=O)N(CCCN)[C@@H](c2nc3cc(Cl)ccc3c(=O)n2Cc2ccccc2)C(C)C)cc1 [ispinesib]
Described as above. The method, boiled down: as §1
As for SCFD2 (UniProt Q8WU76), the log2 fold change was inactive: -0.196.

SCARB1 isoform 2 (UniProt Q8WTV0): the log2 fold change is inactive: 0.037.

On to RWDD1 (UniProt Q9H446), for which the log2 fold change is inactive: 0.068.

Take SCIN (UniProt Q9Y6U3): the log2 fold change is inactive: -0.168.

Consider SDF4 (UniProt Q9BRK5), for which the log2 fold change was inactive: 0.077.

As to RYBP (UniProt Q8N488), the log2 fold change was inactive: 0.049.

For the target SCO1 (UniProt O75880), the log2 fold change was inactive: -0.136.

As for SACS (UniProt Q9NZJ4), the log2 fold change is inactive: -0.022.

On to RTRAF (UniProt Q9Y224), for which the log2 fold change was inactive: -0.126.

For the target SCYL1 (UniProt Q96KG9), the log2 fold change is inactive: 0.028.

On to S100A6 (UniProt P06703), for which the log2 fold change was inactive: 0.06.

With SDHA (UniProt P31040), the log2 fold change is inactive: 0.004.

RSBN1L (UniProt Q6PCB5): the log2 fold change is inactive: -0.056.

Take RUVBL1 (UniProt Q9Y265): the log2 fold change is inactive: 0.098.

For the target SDHAF3 (UniProt Q9NRP4), the log2 fold change was inactive: -0.171.

Consider SBNO1 (UniProt A3KN83), for which the log2 fold change is inactive: 0.072.

Turning to SCLY (UniProt Q96I15), the log2 fold change is inactive: 0.042.

Take S100P (UniProt P25815): the log2 fold change was inactive: 0.334.

On to SCP2 (UniProt P22307), for which the log2 fold change is inactive: -0.03.

Turning to SCAMP4 (UniProt Q969E2), the log2 fold change was inactive: -0.018.

As to SCARB2 (UniProt Q14108), the log2 fold change is inactive: -0.004.

In the case of SCAP (UniProt Q12770), the log2 fold change was inactive: -0.083.

As for SEC24D isoform 2 (UniProt O94855), the log2 fold change was inactive: 0.077.

On to RRP15 (UniProt Q9Y3B9), for which the log2 fold change is inactive: 0.071.

In the case of SBF1 isoform 4 (UniProt O95248), the log2 fold change is inactive: -0.213.

Consider SARG (UniProt Q9BW04), for which the log2 fold change was inactive: 0.005.

Turning to SAR1A (UniProt Q9NR31), the log2 fold change is inactive: 0.236.

As for S100A11 (UniProt P31949), the log2 fold change was inactive: 0.184.

SAP30BP (UniProt Q9UHR5): the log2 fold change is inactive: 0.02.

Turning to SAR1B (UniProt Q9Y6B6), the log2 fold change is inactive: 0.099.

Compound in the next test: Cc1ccc(NC(=O)c2ccc(CN3CC[C@H](N(C)C)C3)c(C(F)(F)F)c2)cc1Nc1nccc(-c2cncnc2)n1 [bafetinib]
Described as above. The method, boiled down:
as §1
Consider SCFD2 (UniProt Q8WU76), for which the log2 fold change is inactive: 0.056.

Turning to SCARB1 isoform 2 (UniProt Q8WTV0), the log2 fold change was inactive: -0.05.

RWDD1 (UniProt Q9H446): the log2 fold change is inactive: -0.082.

As to SCIN (UniProt Q9Y6U3), the log2 fold change was inactive: 0.085.

For SDF4 (UniProt Q9BRK5), the log2 fold change is inactive: -0.052.

On to RYBP (UniProt Q8N488), for which the log2 fold change is inactive: -0.104.

Turning to SCO1 (UniProt O75880), the log2 fold change was inactive: -0.048.

Consider SACS (UniProt Q9NZJ4), for which the log2 fold change was inactive: 0.034.

Regarding RTRAF (UniProt Q9Y224), the log2 fold change was inactive: 0.047.

In the case of SCYL1 (UniProt Q96KG9), the log2 fold change was inactive: -0.015.

As for S100A6 (UniProt P06703), the log2 fold change was inactive: -0.17.

On to SDHA (UniProt P31040), for which the log2 fold change is inactive: -0.029.

RSBN1L (UniProt Q6PCB5): the log2 fold change was inactive: 0.226.

Take RUVBL1 (UniProt Q9Y265): the log2 fold change was inactive: 0.074.

As for SDHAF3 (UniProt Q9NRP4), the log2 fold change is inactive: -0.081.

For the target SBNO1 (UniProt A3KN83), the log2 fold change is inactive: -0.048.

As to SCLY (UniProt Q96I15), the log2 fold change was inactive: -0.006.

With S100P (UniProt P25815), the log2 fold change is inactive: -0.1.

As for SCP2 (UniProt P22307), the log2 fold change was inactive: -0.016.

SCAMP4 (UniProt Q969E2): the log2 fold change is inactive: -0.076.

For SCARB2 (UniProt Q14108), the log2 fold change was inactive: -0.153.

SCAP (UniProt Q12770): the log2 fold change was inactive: -0.029.

Regarding SEC24D isoform 2 (UniProt O94855), the log2 fold change was inactive: -0.001.

Consider RRP15 (UniProt Q9Y3B9), for which the log2 fold change is inactive: 0.001.

Consider SBF1 isoform 4 (UniProt O95248), for which the log2 fold change is inactive: 0.037.

In the case of SARG (UniProt Q9BW04), the log2 fold change is inactive: -0.041.

Take SAR1A (UniProt Q9NR31): the log2 fold change is inactive: 0.045.

Turning to S100A11 (UniProt P31949), the log2 fold change is inactive: -0.06.

As for SAP30BP (UniProt Q9UHR5), the log2 fold change was inactive: -0.087.

SAR1B (UniProt Q9Y6B6): the log2 fold change is inactive: 0.062.
